The results in this text go back to the supplement of paper PMC7125110.

± gives the standard error. The uncertainty is large for many entries.

To fix the notation:
B1: glmS ribozyme (parent)
chain: AUAAAAGCGCCAGAACUACAGAAAUGUAGUUGACGAGGAGGAGGUUUAUCGAAUUUUCGGCGGAUGCCUCCAAA

Variants of B1 are the subject of the first data set. The experiment in a line: kcat; higher = faster cleavage; RNA array. The following applies: with glucosamine-6-phosphate. Summed up: (§1)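 Over ~14 h at 37 °C, tiles were imaged as glucosamine-6-phosphate (40 μM to 10 mM) in HEPES/KCl/Mg(OAc)2 buffer flowed across sequenced MiSeq chips. The chips carried barcoded ribozyme variants transcribed in situ by E. coli RNA polymerase and tracked with a hybridised Cy3 probe. After normalisation to baseline and to non-cleaving reference variants, one- or two-exponential decay fits of per-tile medians gave kobs. kcat and KM followed from weighted Michaelis–Menten fits across concentrations.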
Regarding AUAAAAGCGCCGGAACUACAGAAAUGUAGUUGACGAGUUGGAGGUUUAUCGAAUUUUCGGCGGAUGCCUCCAAA, the kcat (in general, the maximal rate divided by the concentration of active sites) is under 1e-05 s⁻¹.

Consider AUAAAAGCGCCGGAACUACAGAAAUGUAGUUGACGAGGAGGAGGUUUAUCGAAUAUUCGGCGGAUGCCUCCAAA, for which the kcat was determined as 0.0021 ± 0.0015 s⁻¹.

Take AUAAAAGCGCCCGAACUACAGAAAUGUAGUUUACGAGGAGGAGGUUUAUCGAAUUUUCGGCGGAUGCCUCCAAA: the turnover number (kcat) was 0.000616 ± 0.00035 s⁻¹.

On to AUAAAAGCGCCCGAACUACAGAAAUGUAGUUGACGAGGAAGAGGUUUAUCGAAUUUUCGGCGGAUGCCUCCAAA, for which the kcat came out at 0.00343 ± 0.0021 s⁻¹.

With AUAAAAGCGCCCGAACUACAGAAAUGUAGUUGACGAGGAGGAGGUUUAUCGAAUUUUCGGCGGAUGACUCCAAA, the kcat is 0.00471 ± 0.0013 s⁻¹.

As for AUAAAAGCGCCGGAACUACAGAAAUGUAGUAGACGAGGAGGAGGUUUAUCGAAUUUUCGGCGGAUGCCUCCAAA, the kcat came to 0.000422 ± 0.00026 s⁻¹.

On to AUAAAAGCGCCGGAACUACAGAAAUGUAGUUGACGAGGAGGAGGUUCAUCGAAUUUUCGGCGGAUGCCUCCAAA, for which the kcat is 0.000813 ± 9.1e-05 s⁻¹.

Regarding AUAAAAGCGCUAUAACUACAGAAAUGUAGUUGACGAGGAGGAGGUUUAUCGAAUUUUCGGCGGAUGCCUCCAAA, the kcat is 6.21e-05 ± 5.4e-06 s⁻¹.

As to AUAAAAGCGCCCGAACUACAGAAAUGUAGUUGACGAGGAGGAUGUUUAUCGAAUUUUCGGCGGAUGCCUCCAAA, the turnover number (kcat) was 5.32e-05 ± 9.5e-07 s⁻¹.

On to AUAAAAGCGCCCGAACUACAGAAAUGUAGUUGACGAGGAGGAGGUUUAUCGAACUUUCGGCGGAUGCCUCCAAA, for which the kcat is 0.0233 ± 0.015 s⁻¹.

In the case of AUAAAAGCGCUAGAACUACAGAAAUGUAGUUGACGAGGAGGAGGUUAAUCGAAUUUUCGGCGGAUGCCUCCAAA, the kcat came to 0.00344 ± 0.003 s⁻¹.

As to AUAAAAGCGCUAGAACUACAGAAAUGUAGUUGACGAGGAGGAGGUUUAUCUAAUUUUCGGCGGAUGCCUUCAAA, the kcat amounted to 5.97e-05 ± 4.5e-05 s⁻¹.

Consider AUAAAAGCGCCGGAACUACAGAAAUGUAGUUGUCGAGGAGGAGGUUUAUCGAAUUUUCGGCGGAUGCCUCCAAA, for which the kcat came out at 1.86e-05 ± 6.4e-06 s⁻¹.

For the variant AUAAAAGCGCUAGAACUACAGAAAUGUAGUUGACGAGGAGGAGGUGUAUCGAAUUUUCGGCGGAUGCCUCCAAA, the kcat was determined as 0.000268 ± 4.3e-05 s⁻¹.

Take AUAAAAGCGCCCGAACUACAGAAAUGUAGUUGACGAGGAGUAGGUUUAUCGAAUUUUCGGCGGAUGCCUCCAAA: the kcat is 0.000937 ± 0.00053 s⁻¹.

Turning to AUAAAAGCGCCCGAACUACAGAAAUGUAGUUGACGAGGAGGAGGUUUAUCGAAUUUUCGGCGGAUGCCUCAAAA, the catalytic constant (kcat) was 0.00295 ± 0.0015 s⁻¹.

AUAAAAGCGCCCGAACUACAGAAAUGUAGUUGACGACGAGGAGGUUUAUCGAAUUUUCGGCGGAUGCCUCCAAA: the kcat is 8.54e-05 ± 2.4e-06 s⁻¹.

With AUAAAAGCGCCGGGACUACAGAAAUGUAGUUGACGAGGAGGAGGUUUAUCGAAUUUACGGCGGAUGCAGCCAAA, the kcat worked out at 5.39e-05 ± 3.1e-05 s⁻¹.

Take AUAAAAGCGCCUGCACUACAGAAAUGUAGUUGACGAGGAGGAGGUUUAUCGAAUUUUCGGCGGAUGCCUCCAAA: the kcat was determined as 0.00505 ± 0.0013 s⁻¹.

In another data set the parent is B1. The experiment in a line: KM; higher = weaker cofactor use; RNA array. The note with it: with glucosamine-6-phosphate. Summed up: as §1
Consider AUAAAAGCGCCCGAACUACAGAAAUGUAGUUUACGAGGAGGAGGUUUAUCGAAUUUUCGGCGGAUGCCUCCAAA, for which the KM (as a rule, the concentration of substrate that gives half-maximal velocity) turned out to be 13800 ± 10000 µM.

On to AUAAAAGCGCCCGAACUACAGAAAUGUAGUUGACGAGGAAGAGGUUUAUCGAAUUUUCGGCGGAUGCCUCCAAA, for which the KM came to 1630 ± 1300 µM.

On to AUAAAAGCGCCCGAACUACAGAAAUGUAGUUGACGAGGAGGAGGUUUAUCGAAUUUUCGGCGGAUGACUCCAAA, for which the KM was 1180 ± 470 µM.

Turning to AUAAAAGCGCCGGAACUACAGAAAUGUAGUAGACGAGGAGGAGGUUUAUCGAAUUUUCGGCGGAUGCCUCCAAA, the Michaelis-Menten constant (KM) stood at 9480 ± 9000 µM.

In the case of AUAAAAGCGCCGGAACUACAGAAAUGUAGUUGACGAGGAGGAGGUUCAUCGAAUUUUCGGCGGAUGCCUCCAAA, the KM turned out to be 3820 ± 720 µM.

With AUAAAAGCGCUAUAACUACAGAAAUGUAGUUGACGAGGAGGAGGUUUAUCGAAUUUUCGGCGGAUGCCUCCAAA, the KM worked out at 1020 ± 420 µM.

Regarding AUAAAAGCGCCCGAACUACAGAAAUGUAGUUGACGAGGAGGAUGUUUAUCGAAUUUUCGGCGGAUGCCUCCAAA, the KM was found to be 1200 ± 86 µM.

On to AUAAAAGCGCCCGAACUACAGAAAUGUAGUUGACGAGGAGGAGGUUUAUCGAACUUUCGGCGGAUGCCUCCAAA, for which the KM is 1870 ± 1600 µM.

AUAAAAGCGCCGGAACUACAGAAAUGUAGUUGUCGAGGAGGAGGUUUAUCGAAUUUUCGGCGGAUGCCUCCAAA: the KM was 2030 ± 1500 µM.

For the variant AUAAAAGCGCUAGAACUACAGAAAUGUAGUUGACGAGGAGGAGGUGUAUCGAAUUUUCGGCGGAUGCCUCCAAA, the KM was 2460 ± 740 µM.

Regarding AUAAAAGCGCCCGAACUACAGAAAUGUAGUUGACGAGGAGUAGGUUUAUCGAAUUUUCGGCGGAUGCCUCCAAA, the KM was 1660 ± 1400 µM.

As for AUAAAAGCGCCCGAACUACAGAAAUGUAGUUGACGAGGAGGAGGUUUAUCGAAUUUUCGGCGGAUGCCUCAAAA, the KM came out at 2670 ± 2000 µM.

Take AUAAAAGCGCCCGAACUACAGAAAUGUAGUUGACGACGAGGAGGUUUAUCGAAUUUUCGGCGGAUGCCUCCAAA: the KM came to 6970 ± 420 µM.

On to AUAAAAGCGCCUGCACUACAGAAAUGUAGUUGACGAGGAGGAGGUUUAUCGAAUUUUCGGCGGAUGCCUCCAAA, for which the Michaelis-Menten constant (KM) came out at 1630 ± 560 µM.

In a further data set the parent is B1. As to the kind of experiment: self-cleavage kobs at 640 uM GlcN6P; higher = faster cleavage; RNA array. The following applies: with glucosamine-6-phosphate. A digest of the protocol: as §1
On to AUAAAAGCGCUAUAACUACAGAAAUGUAGUUGACGAGGAGGAGGUUUAUCGAAUUUUCGGCGGAUGCCUCCAAA, for which the “self-cleavage kobs at 640 uM GlcN6P” value is 1.61e-05 ± 1.5e-05 s⁻¹.

Turning to AUAAAAGCGCCCGAACUACAGAAAUGUAGUUGACGAGGAGGAUGUUUAUCGAAUUUUCGGCGGAUGCCUCCAAA, the “self-cleavage kobs at 640 uM GlcN6P” value came out at 1.85e-05 ± 1.7e-05 s⁻¹.

The variants in the next data set derive from B1. The experiment in a line: self-cleavage kobs at 160 uM GlcN6P; higher = faster cleavage; RNA array. The following applies: with glucosamine-6-phosphate. A digest of the protocol:
as §1
As to AUAAAAGCGCUAGAACUACAGAAAUGUAGUUGACGAGGAGGAGGUGUAUCGAAUUUUCGGCGGAUGCCUCCAAA, the “self-cleavage kobs at 160 uM GlcN6P” value worked out at 2.02e-05 ± 1.8e-05 s⁻¹.

The next data set covers variants of B1. As to the kind of experiment: self-cleavage kobs at 40 uM GlcN6P; higher = faster cleavage; RNA array. The following applies: with glucosamine-6-phosphate. Summed up:
as §1
As for AUAAAAGCGCCGGGACUACAGAAAUGUAGUUGACGAGGAGGAGGUUUAUCGAAUUUACGGCGGAUGCAGCCAAA, the “self-cleavage kobs at 40 uM GlcN6P” value was 4.24e-05 ± 2.2e-05 s⁻¹.

The variants in another data set derive from B1. The experiment in a line: self-cleavage kobs at 10000 uM GlcN6P; higher = faster cleavage; RNA array. The following applies: with glucosamine-6-phosphate. Summed up:
as §1
As to AUAAAAGCGCCGGGACUACAGAAAUGUAGUUGACGAGGAGGAGGUUUAUCGAAUUUACGGCGGAUGCAGCCAAA, the “self-cleavage kobs at 10000 uM GlcN6P” value was 3.77e-05 ± 2e-05 s⁻¹.
